Experimental data: article PMC11533276
No constants are given. Whether binding was seen depends on the method and setting. In cells and extracts the contact can be indirect.

Protein sequences, listed by entry. Tags and fused reporters are not part of them.
UniProt Q13464: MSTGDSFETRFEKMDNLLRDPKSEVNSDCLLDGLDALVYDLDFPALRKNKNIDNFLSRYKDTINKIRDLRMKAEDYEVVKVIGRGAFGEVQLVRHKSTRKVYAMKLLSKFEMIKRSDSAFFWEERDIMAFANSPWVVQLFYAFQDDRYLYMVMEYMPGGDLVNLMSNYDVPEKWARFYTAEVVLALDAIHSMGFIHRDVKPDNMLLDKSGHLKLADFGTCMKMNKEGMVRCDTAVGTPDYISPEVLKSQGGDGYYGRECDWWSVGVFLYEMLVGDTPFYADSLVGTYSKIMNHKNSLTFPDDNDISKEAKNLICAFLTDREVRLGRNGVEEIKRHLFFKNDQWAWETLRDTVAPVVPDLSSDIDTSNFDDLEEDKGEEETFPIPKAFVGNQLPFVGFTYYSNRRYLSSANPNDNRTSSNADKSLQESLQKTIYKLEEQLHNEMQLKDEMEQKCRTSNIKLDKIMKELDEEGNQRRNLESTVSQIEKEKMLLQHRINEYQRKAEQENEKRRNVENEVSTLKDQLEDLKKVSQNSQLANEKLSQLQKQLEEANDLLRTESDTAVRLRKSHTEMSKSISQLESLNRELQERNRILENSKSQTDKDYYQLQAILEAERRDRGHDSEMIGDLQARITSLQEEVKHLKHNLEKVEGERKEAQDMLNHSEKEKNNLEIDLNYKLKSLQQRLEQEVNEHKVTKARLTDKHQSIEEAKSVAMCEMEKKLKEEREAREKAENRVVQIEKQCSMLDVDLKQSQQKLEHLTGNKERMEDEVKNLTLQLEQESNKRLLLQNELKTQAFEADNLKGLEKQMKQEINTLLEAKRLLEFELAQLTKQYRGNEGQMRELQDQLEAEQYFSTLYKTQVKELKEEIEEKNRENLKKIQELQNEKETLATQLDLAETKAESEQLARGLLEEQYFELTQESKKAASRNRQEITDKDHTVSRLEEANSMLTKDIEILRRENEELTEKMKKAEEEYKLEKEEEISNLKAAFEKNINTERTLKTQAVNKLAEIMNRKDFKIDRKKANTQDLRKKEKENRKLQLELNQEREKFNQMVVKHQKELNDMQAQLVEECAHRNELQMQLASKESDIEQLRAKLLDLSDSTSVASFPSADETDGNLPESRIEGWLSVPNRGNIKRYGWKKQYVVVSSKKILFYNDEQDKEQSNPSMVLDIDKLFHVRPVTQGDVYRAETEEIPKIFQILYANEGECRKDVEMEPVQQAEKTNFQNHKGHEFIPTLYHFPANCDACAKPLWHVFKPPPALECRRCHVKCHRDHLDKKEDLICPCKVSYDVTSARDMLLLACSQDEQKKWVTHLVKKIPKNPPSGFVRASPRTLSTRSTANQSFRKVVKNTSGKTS

Target: Rho-associated coiled-coil kinase 1 (human (endogenous in HEK-293T)) (UniProt Q13464)
Test: co-IP; HEK-293T lysate (Pierce IP lysis buffer); anti-ROCK1 antibody overnight at 4 °C, protein A/G agarose; immunoblotting

B1: cation-dependent mannose-6-phosphate receptor (receptor, UniProt P20645 27-277)
chain: TEEKTCDLVGEKGKESEKELALVKRLKPLFNKSFESTVGQGSDTYIYIFRVCREAGNHTSGAGLVQINKSNGKETVVGRLNETHIFNGSNWIMLIYKGGDEYDNHCGKEQRRAVVMISCNRHTLADNFNPVSEERGKVQDCFYLFEMDSSLACSPEISHLSVGSILLVTFASLVAVYVVGGFLYQRLVVGAKGMEQFPHLAFWQDLGNLVADGCDFVCRSKPRNVPAAYRGVGDDQLGEESEERDDHLLPM
How did the binding turn out when B1 was run?
The binding was “no binding”.
